# Screening data, single-dose tests

Sequences of proteins named here, by UniProt entry; tags and fusion partners are left off.
UniProt P9WPC5, whole entry: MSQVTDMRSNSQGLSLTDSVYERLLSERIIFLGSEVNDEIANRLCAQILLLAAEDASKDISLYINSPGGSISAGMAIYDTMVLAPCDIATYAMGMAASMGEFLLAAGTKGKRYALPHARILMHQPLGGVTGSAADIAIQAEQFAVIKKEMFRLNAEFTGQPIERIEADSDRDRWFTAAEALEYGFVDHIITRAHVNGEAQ
UniProt P9WPC3, whole entry partner: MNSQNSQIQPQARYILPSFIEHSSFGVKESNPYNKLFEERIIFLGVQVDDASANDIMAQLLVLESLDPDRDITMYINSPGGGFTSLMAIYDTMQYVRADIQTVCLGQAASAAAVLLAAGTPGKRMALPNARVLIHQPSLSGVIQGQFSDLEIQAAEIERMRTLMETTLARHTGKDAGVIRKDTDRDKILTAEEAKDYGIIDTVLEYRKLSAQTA

The values are deposited in ChEMBL (CHEMBL3988442, “University of Dundee, Small-Polar-MMV Screening Library” (2021)).

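ClpP1P2, Mycobacterium tuberculosis (UniProt P9WPC5 and UniProt P9WPC3). Protease assay of ClpP1P2, read by the AMC dye that it sets free. Compounds at 50 µM. Direction is inferred from only a few compounds that gave an IC50; most scored high, so higher reads as stronger inhibition. Most other retested compounds had strongly negative values. About 69,000 compounds were tested under these conditions; 0.015% (about 10) showed 50% or more at least once.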

The filed quantity is “Percent Effect” (%). The record does not define 0% and 100%; most values in the screen are far below 50% and negative numbers occur (in some assays of this library far below -100). Compounds were drawn at random from those tested, without regard to their results.

- CCS(=O)(=O)N1C[C@@H]2COC[C@@H](Cc3nc(C)no3)[C@@H]2C1 : 0.0261%
- COc1ccc2c(ccn2CCC(=O)NCc2ccc(C(=O)O)cc2)c1 : -9.278%
- O=C(NC1CCCC1)c1cc(Cn2cnc3ccccc32)on1 : 0.8268%
- COc1nn(C)c2c1CCCN(S(=O)(=O)c1cccc(C)c1)C2 : -7.916%
- COc1ccc(C[C@H]2CN(C(=O)c3cc(C)no3)CC[C@H]2OC)cc1 : 9.285%
- Cc1cc(CN(C)Cc2csc(-c3cccs3)n2)n[nH]1 : -7.174%
- Cc1c(C(=O)O)cnn1-c1ccc(-c2nc(C(C)(C)C)no2)cn1 : -0.1351%
- Cc1cc(CN(C)Cc2ccccc2N2CCCCC2)n[nH]1 : -12.03%
- COCCn1cnc2ccc(NC(=O)C3CC3)cc2c1=O : 1.559%
- CC(C)c1nnc(NC(=O)N(C)Cc2ccc(C(N)=O)cc2)s1 : 24.81%
- CC(Cn1cccn1)NC(=O)NCCCN1CCc2ccccc21 (stereo not shown) : -0.8606%
- c1cncc(OC[C@@]23CCC[C@@H]2CN(C2CCOCC2)C3)c1 : -0.252%
- COCCN1CCN(C(=O)c2ccncc2F)Cc2cccnc21 : -0.833%
- O=C(Nc1cccc2c1CCCC2)c1cccnc1N1CCCNCC1 : -1.858%
- CCOc1ccccc1N1CCN(C(=O)c2cc[nH]n2)CC1 : -9.029%
- O=C1CC(C2CCCCC2)c2c(n(C3CCCC3)[nH]c2=O)N1 (stereo not shown) : -21.03%
- CC[C@@H](Cn1ncc2ccccc2c1=O)NC(=O)c1cnccn1 : -1.499%
- Cn1ncc2c(=O)[nH]c(CN3CCCC3CC3CCCCC3)nc21 (stereo not shown) : 5.697%
- O=S(=O)(NCc1ccccc1Cn1cncn1)C1CCCC1 : 0.1746%
- COc1ccc(-c2cc3nc(CCNC(=O)CN(C)C)nn3cn2)cc1 : -15.91%
- CN1CCCC(C(=O)N2CCC(Oc3ncccn3)CC2)C1 (stereo not shown) : 0.3285%
- CN(Cc1cn2c(n1)CN(C1CCOC1)CC2)Cc1ccco1 (stereo not shown) : 12.36%
- C[S+]([O-])CCNC(=O)Nc1cc(F)ccc1-n1cccn1 (stereo not shown) : -1.703%
- CN1CCC2(CC1)CNC(=O)c1ccccc1O2 : -2.501%
- CCn1ccnc1CN1CCCN(C(=O)Cc2ccc(C)nc2)CC1 : 1.36%
- CCOCCCNC(=O)C1(C)CCC(=O)N1c1cc(OC)ccc1OC (stereo not shown) : -6.727%
- O=C1CCCN1Cc1ncn2c1CN(C(=O)NC1CCCCC1)CCC2 : 7.043%
- COCCN(Cc1ccncc1)C(=O)C1COc2c(cccc2OC)C1 (stereo not shown) : -5.583%
- CN(C)C(=O)CN1CCN(C(=O)C2CSc3ccccc3O2)CC1 (stereo not shown) : -2.155%
- Cc1cnc(C(NC(=O)NCC2(CO)CC2)C2CC2)s1 (stereo not shown) : -4.966%
- CN1CCn2c(-c3cnn(C)c3)cnc2C12CCN(CC1CC1)CC2 : 11.98%
- Cc1cc(NC(=O)NCC(c2ccsc2)N(C)C)n(C)n1 (stereo not shown) : -3.16%
- CC(C)(C)[S+]([O-])CCNC(=O)c1csc(NC2CC2)n1 (stereo not shown) : -6.597%
- COC(C)(C)CC(C)NC(=O)NC1CCN(Cc2ccccn2)CC1 (stereo not shown) : -1.369%
- COCCC1COC2(CCN(C(=O)c3cccnc3)CC2)C1 (stereo not shown) : -7.331%
- O=C(Nc1ccccc1)C1CN(Cc2cccs2)CC12CCOCC2 (stereo not shown) : -2.273%
- Cc1cc(C2NC(=O)CN2Cc2ccc(Br)cc2)cc(C)c1O (stereo not shown) : 1.631%
- Cn1cc(CN2CC[C@@H]3[C@@H]2CCN3Cc2ccc3c(c2)OCO3)cn1 : 1.954%
- CCN(C)C(=O)c1cc(-c2ccn(C(C)C)n2)n2ccccc12 : -39.26%
- CN(CCc1ccccc1)c1cnn(CC(=O)N2CCSCC2)c(=O)c1 : -11.85%
- Cc1cc(C)nc(C2CCN(C(=O)c3c(C)noc3C)C2)n1 (stereo not shown) : 0.5819%
- COc1ncccc1CNC(=O)c1ccc(C)[nH]c1=O : -9.674%
- COCCCC1(C(=O)O)CCCN(Cc2cc3c(cc2C)OCCO3)C1 (stereo not shown) : 3.705%
- Cc1cc(C)n(CC(C)NC(=O)NCc2c(C)cc(C)[nH]c2=O)n1 (stereo not shown) : 0.2942%
- NC1(c2nc(C(F)(F)F)cc(=O)[nH]2)CCCCC1 : -4.72%

Some entries from above, unchanged:

| SMILES | effect |
|---|---|
| `Cc1cc(CN(C)Cc2csc(-c3cccs3)n2)n[nH]1` | -7.174% |
| `COCCCC1(C(=O)O)CCCN(Cc2cc3c(cc2C)OCCO3)C1` (stereo not shown) | 3.705% |
| `CC(Cn1cccn1)NC(=O)NCCCN1CCc2ccccc21` (stereo not shown) | -0.8606% |